Chains of the proteins cited; added tags and fusions are not shown. Lines headed by an entry give the natural chain unless they say otherwise; changes in a name come on top. A line that says so, or that is headed by a name, gives the form on record, which may keep a tag or linker.
ZNF207 with a C-terminal miniTurbo tag (O43670, form named): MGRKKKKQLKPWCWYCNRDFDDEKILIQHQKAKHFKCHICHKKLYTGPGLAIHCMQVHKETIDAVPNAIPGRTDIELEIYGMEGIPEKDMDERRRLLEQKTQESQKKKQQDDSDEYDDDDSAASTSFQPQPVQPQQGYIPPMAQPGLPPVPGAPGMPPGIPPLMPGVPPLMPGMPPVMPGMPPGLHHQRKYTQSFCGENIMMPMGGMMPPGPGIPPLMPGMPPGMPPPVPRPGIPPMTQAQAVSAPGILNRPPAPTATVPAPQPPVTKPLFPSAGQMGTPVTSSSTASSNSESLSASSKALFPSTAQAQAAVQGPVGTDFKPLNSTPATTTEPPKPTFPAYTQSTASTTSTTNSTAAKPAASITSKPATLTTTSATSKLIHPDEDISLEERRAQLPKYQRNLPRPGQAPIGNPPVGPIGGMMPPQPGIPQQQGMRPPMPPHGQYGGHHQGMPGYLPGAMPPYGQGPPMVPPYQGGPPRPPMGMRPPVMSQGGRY
UniProt O43684: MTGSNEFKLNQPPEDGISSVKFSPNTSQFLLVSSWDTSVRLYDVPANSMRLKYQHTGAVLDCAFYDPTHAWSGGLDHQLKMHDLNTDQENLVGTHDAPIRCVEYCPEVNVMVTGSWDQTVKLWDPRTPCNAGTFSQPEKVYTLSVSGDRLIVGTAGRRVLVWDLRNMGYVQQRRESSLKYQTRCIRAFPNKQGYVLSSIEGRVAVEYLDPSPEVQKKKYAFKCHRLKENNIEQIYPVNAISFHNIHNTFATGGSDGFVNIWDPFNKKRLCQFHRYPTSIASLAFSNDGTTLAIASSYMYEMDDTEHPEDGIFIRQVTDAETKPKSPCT

According to paper doi:10.1101/2025.04.25.648738:

Target: ZNF207 with a C-terminal miniTurbo tag (human) (UniProt O43670)
Test: proximity labelling; miniTurboID: HEK293 Flp-In cells expressing ZNF207-miniTurbo (doxycycline 0.5 ug/mL), 50 uM biotin, streptavidin capture, mass spectrometry, triplicate; controls miniTurbo-Empty and miniTurbo-EGFP

binding: binds
Substance: BUB3 (from UniProt O43684 1-328)

These are yes or no findings as the source states them, for the method shown. Binding seen in cells or lysates may run through a third protein. These calls come from enrichment with a bait or labelling near it, and not all partners need be listed.
